Source: patent publication US20150093383A1 (ONO PHARMACEUTICAL, published 2015)
Results are given in words; binding and its absence hold for the method and conditions named. In cells and extracts the contact can be indirect. Binding calls can cover weak binding; strength is not graded here.

Target: FcR-hBIR1 (wt) chimeric protein (mouse FcγRIIB / human BIR1 chimera)
Experiment: co-immunoprecipitation with 2.4G2 after crosslinking of the chimera with BCR by intact antibody, Western blotting

B1: SHIP-1 (enzyme, UniProt Q9ES52 1-1191, looked up)
chain: MPAMVPGWNHGNITRSKAEELLSRAGKDGSFLVRASESIPRAYALCVLFRNCVYTYRILPNEDDKFTVQASEGVPMRFFTKLDQLIDFYKKENMGLVTHLQYPVPLEEEDAIDEAEEDTVESVMSPPELPPRNIPMSAGPSEAKDLPLATENPRAPEVTRLSLSETLFQRLQSMDTSGLPEEHLKAIQDYLSTQLLLDSDFLKTGSSNLPHLKKLMSLLCKELHGEVIRTLPSLESLQRLFDQQLSPGLRPRPQVPGEASPITMVAKLSQLTSLLSSIEDKVKSLLHEGSESTNRRSLIPPVTFEVKSESLGIPQKMHLKVDVESGKLIVKKSKDGSEDKFYSHKKILQLIKSQKFLNKLVILVETEKEKILRKEYVFADSKKREGFCQLLQQMKNKHSEQPEPDMITIFIGTWNMGNAPPPKKITSWFLSKGQGKTRDDSADYIPHDIYVIGTQEDPLGEKEWLELLRHSLQEVTSMTFKTVAIHTLWNIRIVVLAKPEHENRISHICTDNVKTGIANTLGNKGAVGVSFMFNGTSLGFVNSHLTSGSEKKLRRNQNYMNILRFLALGDKKLSPFNITHRFTHLFWLGDLNYRVELPTWEAEAIIQKIKQQQYSDLLAHDQLLLERKDQKVFLHFEEEEITFAPTYRFERLTRDKYAYTKQKATGMKYNLPSWCDRVLWKSYPLVHVVCQSYGSTSDIMTSDHSPVFATFEAGVTSQFVSKNGPGTVDSQGQIEFLACYATLKTKSQTKFYLEFHSSCLESFVKSQEGENEEGSEGELVVRFGETLPKLKPIISDPEYLLDQHILISIKSSDSDESYGEGCIALRLETTEAQHPIYTPLTHHGEMTGHFRGEIKLQTSQGKMREKLYDFVKTERDESSGMKCLKNLTSHDPMRQWEPSGRVPACGVSSLNEMINPNYIGMGPFGQPLHGKSTLSPDQQLTAWSYDQLPKDSSLGPGRGEGPPTPPSQPPLSPKKFSSSTANRGPCPRVQEARPGDLGKVEALLQEDLLLTKPEMFENPLYGSVSSFPKLVPRKEQESPKMLRKEPPPCPDPGISSPSIVLPKAQEVESVKGTSKQAPVPVLGPTPRIRSFTCSSSAEGRMTSGDKSQGKPKASASSQAPVPVKRPVKPSRSEMSQQTTPIPAPRPPLPVKSPAVLQLQHSKGRDYRDNTELPHHGKHRQEEGLLGRTAMQ
binding: binds
